HELM strings list residues between dots; [ac] is acetyl, [am] amide, other brackets name non-standard units.
Experiment: general procedure: solution-phase peptide synthesis; azide fragment condensation

With “PEPTIDE1{K.A.P.S.G.R.M.S.I.V.K.N.L.Q.N.L.D.P.S.H.R.I.S.D.R.D.Y.M.G.W.M.D.F.[am]}$$$$V2.0” the step yield (late stage modification step) was 95.4%, the step yield (purification step, run 1) was 31.1% and the step yield (purification step, run 2) was 53%.

In the case of “PEPTIDE1{K.A.P.S.G.R.M.S.I.V.K.N.L.Q.N.L.D.P.S.H.R.I.S.D.R.D.[Tyr(SO3H)].M.G.W.M.D.F.[am]}$$$$V2.0”, the step yield (late stage modification step) is reported as 63.9%, the step yield (late stage modification step, overall) is reported as 25.0% and the step yield (late stage modification step, overall, based on the unsulfated hCCK-33) is reported as 15%. The step yield (late stage modification step, overall, based on unsulfated hCCK-33) was 13%, the step yield (purification step, run 1) was 39.1% and the step yield (purification step, run 2) was 61%.
